Laboratory results from paper PMC6746817.
Results are given in words; binding and its absence hold for the method and conditions named. Binding seen in cells or lysates may run through a third protein. Some results given as binding are weak or reduced against the parent protein; the word gives no strength.

Chains of the proteins cited; added tags and fusions are not shown.
UniProt P10275: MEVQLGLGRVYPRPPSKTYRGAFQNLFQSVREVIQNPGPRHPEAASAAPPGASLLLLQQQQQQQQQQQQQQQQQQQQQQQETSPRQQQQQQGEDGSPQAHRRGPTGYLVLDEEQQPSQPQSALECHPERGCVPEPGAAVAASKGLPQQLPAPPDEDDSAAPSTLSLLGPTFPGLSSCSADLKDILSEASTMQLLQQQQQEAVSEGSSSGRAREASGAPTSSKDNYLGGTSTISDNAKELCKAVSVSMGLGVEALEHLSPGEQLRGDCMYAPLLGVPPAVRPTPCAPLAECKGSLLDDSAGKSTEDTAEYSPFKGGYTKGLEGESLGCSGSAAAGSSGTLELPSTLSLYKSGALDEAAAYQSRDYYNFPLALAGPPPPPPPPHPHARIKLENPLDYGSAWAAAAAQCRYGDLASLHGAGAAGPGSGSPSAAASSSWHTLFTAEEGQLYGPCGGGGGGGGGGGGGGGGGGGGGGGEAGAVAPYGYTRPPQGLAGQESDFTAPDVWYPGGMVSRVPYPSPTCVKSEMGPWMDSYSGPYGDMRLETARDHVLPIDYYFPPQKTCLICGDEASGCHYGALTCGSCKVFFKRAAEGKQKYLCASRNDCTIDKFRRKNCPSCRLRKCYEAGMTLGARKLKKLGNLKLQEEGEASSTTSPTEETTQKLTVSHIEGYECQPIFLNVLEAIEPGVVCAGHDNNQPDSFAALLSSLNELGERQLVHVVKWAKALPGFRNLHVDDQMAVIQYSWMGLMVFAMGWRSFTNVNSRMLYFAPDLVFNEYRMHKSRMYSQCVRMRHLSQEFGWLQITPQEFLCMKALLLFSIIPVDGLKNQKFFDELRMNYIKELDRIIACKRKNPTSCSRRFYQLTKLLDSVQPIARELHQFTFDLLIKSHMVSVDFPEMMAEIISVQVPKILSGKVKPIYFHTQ
UniProt P25440: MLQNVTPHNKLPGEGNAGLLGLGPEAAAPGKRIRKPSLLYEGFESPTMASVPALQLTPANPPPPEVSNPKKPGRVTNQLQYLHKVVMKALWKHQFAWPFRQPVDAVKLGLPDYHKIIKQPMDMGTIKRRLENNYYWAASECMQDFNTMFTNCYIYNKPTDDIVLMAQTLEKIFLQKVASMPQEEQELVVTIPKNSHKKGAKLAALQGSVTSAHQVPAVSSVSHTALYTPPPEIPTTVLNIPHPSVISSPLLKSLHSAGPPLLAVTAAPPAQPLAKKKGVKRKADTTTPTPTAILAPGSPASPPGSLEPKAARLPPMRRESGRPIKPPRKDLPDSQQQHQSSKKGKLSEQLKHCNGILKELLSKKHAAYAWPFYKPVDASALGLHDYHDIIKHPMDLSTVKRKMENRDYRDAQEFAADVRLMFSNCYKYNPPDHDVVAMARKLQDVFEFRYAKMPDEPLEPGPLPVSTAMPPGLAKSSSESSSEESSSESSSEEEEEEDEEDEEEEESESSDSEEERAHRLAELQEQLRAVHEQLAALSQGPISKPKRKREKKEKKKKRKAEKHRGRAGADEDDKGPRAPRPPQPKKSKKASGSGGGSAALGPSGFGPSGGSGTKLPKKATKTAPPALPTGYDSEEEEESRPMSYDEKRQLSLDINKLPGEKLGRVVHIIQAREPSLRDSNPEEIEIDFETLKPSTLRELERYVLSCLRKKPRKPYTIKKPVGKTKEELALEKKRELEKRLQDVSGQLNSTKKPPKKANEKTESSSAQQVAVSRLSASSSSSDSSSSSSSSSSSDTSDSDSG

Experiments:
[1] = target: T1, ATPase-family AAA-domain-containing 2 protein (human (endogenous in MDA-MB-231 and MDA-MB-453)) (UniProt Q6PL18); assay: condition: only cells treated with 0.5 μM JQ1 for 72 hours; co-IP; nuclear proteins of MDA-MB-231 and MDA-MB-453 cells treated with 0.5 uM JQ1 for 72 hours; precipitation with antibody against ATAD2, Protein A/G Sepharose beads, immunoblot
T1 sequence: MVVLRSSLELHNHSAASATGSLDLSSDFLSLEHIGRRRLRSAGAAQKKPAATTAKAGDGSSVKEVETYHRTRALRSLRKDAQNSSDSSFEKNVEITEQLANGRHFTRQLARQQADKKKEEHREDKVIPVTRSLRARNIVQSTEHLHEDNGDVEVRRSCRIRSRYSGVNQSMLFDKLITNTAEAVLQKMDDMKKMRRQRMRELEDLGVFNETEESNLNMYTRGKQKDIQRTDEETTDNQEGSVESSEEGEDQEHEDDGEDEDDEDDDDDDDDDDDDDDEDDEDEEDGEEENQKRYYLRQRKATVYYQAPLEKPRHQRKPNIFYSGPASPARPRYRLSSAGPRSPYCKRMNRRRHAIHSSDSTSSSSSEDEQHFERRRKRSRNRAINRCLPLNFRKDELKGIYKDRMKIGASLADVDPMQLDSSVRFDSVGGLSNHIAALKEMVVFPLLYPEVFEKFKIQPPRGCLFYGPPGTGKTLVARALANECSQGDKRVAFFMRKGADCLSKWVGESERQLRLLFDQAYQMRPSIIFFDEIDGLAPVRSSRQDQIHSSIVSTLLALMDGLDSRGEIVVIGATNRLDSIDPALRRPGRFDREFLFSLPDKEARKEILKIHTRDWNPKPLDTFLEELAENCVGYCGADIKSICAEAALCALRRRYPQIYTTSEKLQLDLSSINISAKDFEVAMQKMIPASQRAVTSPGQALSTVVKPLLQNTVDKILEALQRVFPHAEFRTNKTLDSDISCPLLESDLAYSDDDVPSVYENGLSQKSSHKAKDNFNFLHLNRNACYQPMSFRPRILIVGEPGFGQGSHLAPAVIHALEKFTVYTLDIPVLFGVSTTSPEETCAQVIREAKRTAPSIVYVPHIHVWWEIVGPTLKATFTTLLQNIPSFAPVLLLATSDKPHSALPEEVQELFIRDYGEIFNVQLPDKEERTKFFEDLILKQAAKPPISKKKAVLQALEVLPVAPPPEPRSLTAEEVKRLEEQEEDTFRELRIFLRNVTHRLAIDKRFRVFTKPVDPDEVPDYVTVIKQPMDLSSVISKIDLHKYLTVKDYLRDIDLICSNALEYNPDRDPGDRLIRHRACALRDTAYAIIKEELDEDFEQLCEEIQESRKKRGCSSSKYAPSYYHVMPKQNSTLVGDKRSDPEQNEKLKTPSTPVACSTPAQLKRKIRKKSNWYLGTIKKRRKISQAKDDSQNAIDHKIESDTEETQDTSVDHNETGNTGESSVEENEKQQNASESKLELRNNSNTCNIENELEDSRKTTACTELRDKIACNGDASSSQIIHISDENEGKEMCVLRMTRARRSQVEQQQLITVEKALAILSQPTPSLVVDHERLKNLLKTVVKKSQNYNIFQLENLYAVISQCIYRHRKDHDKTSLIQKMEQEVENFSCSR

[2] = target: T1, ATPase-family AAA-domain-containing 2 protein (human (endogenous in MDA-MB-231 and MDA-MB-453)); assay: co-IP; nuclear proteins of MDA-MB-231 and MDA-MB-453 cells treated with DMSO (vehicle) (AR precipitation also after 0.5 uM JQ1 for 72 hours, interactions not affected); extracts (0.1 mg) incubated overnight at 4 °C with mouse antibody against AR or ATAD2, Protein A/G Sepharose beads, washed 3 times with lysis buffer, immunoblot
[3] = target: androgen receptor (human (endogenous in MDA-MB-231 and MDA-MB-453)) (UniProt P10275); assay: as above

In the case of “androgen receptor (from UniProt P10275 1-920)”, the binding [1] is reported as “no binding” and the binding [2] is reported as “binds”.
With “BRD-containing protein 2 (from UniProt P25440 1-801)” the binding [1] was “no binding”, the binding [2] was “binds weakly” and the binding [3] was “binds”.
